Source: publication PMC5080453
These are yes or no findings as the source states them, for the method shown. Some binding calls cover weakened binding; strength is not graded here.

Protein sequences, listed by entry. Tags and fused reporters are not part of them. Residues count along the entry.
UniProt P18075, residues 293-431: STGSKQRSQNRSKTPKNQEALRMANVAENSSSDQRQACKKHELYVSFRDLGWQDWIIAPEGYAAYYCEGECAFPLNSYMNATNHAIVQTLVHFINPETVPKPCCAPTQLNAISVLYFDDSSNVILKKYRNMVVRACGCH

Experiments:
[1] = molecular target: T1, human twisted gastrulation (Tsg), native (glycosylated) (human) (UniProt Q9GZX9); experiment: SPR; Supplementary Fig. 1; by the methods all interactions other than those of Fig. 4 were run on a Biacore T200, 25 °C, 10 mM Hepes, 150 mM NaCl, 3 mM EDTA, 0.005% Tween-20, pH 7.4, 30 μl/min; who was immobilised was not shown; both purified
T1 sequence (chain, N-linked glycans (three predicted N-linked glycosylation sites)): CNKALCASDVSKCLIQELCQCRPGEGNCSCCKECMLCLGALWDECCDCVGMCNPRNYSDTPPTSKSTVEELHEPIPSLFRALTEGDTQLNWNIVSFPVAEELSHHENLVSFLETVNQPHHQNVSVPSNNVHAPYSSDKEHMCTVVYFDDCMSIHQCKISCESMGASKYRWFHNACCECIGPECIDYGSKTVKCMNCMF

[2] = molecular target: T2, natively deglycosylated human twisted gastrulation (Tsg) (human) (UniProt Q9GZX9); experiment: as above
T2 sequence (chain, N-linked glycans removed with PNGase-F under non-denaturing conditions): T1 sequence (chain, N-linked glycans (three predicted N-linked glycosylation sites))

binding [1]: binds | binding [2]: binds
Substance: human BMP-7 (from UniProt P18075 293-431) (ligand)
